In PMC3498133 one finds binding data, which are given here for 1 molecule.

In this assay the target is T1, ExoU (Pseudomonas aeruginosa), O34208.
T1 chain: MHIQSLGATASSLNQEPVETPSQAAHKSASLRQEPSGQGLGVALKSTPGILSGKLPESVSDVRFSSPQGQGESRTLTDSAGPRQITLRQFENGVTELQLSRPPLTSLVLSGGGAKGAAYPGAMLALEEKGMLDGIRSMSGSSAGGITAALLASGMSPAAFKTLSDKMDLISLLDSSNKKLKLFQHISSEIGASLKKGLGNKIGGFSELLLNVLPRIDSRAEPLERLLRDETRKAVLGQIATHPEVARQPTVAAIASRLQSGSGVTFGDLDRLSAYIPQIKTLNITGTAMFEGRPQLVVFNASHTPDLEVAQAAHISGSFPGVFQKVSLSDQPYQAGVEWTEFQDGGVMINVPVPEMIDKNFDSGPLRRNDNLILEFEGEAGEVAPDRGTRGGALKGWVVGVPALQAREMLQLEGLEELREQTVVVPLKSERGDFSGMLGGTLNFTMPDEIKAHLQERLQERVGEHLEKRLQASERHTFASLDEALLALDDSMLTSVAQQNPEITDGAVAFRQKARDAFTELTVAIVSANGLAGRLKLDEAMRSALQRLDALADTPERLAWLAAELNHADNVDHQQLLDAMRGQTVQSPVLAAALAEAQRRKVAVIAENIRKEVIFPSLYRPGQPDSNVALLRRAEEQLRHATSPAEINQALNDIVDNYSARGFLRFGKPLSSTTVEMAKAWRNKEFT
Kind of assay: SEC-MALS; Superdex 200 10/300 GL, 100 µL at 2 mg/mL, 10 mM Tris-HCl pH 8.3 with 200 mM or 500 mM NaCl, 22°C; ExoU, SpcU, the co-expressed/co-purified complex and ExoU:SpcU mixtures (1:2.5 and 1:8); both purified. Conditions: remark: other sources report otherwise. In general terms: In gel filtration, larger molecules generally elute earlier.

Results are given in words; binding and its absence hold for the method and conditions named.

B1: ExoU, O34208 1-687 (protein)
chain: MHIQSLGATASSLNQEPVETPSQAAHKSASLRQEPSGQGLGVALKSTPGILSGKLPESVSDVRFSSPQGQGESRTLTDSAGPRQITLRQFENGVTELQLSRPPLTSLVLSGGGAKGAAYPGAMLALEEKGMLDGIRSMSGSSAGGITAALLASGMSPAAFKTLSDKMDLISLLDSSNKKLKLFQHISSEIGASLKKGLGNKIGGFSELLLNVLPRIDSRAEPLERLLRDETRKAVLGQIATHPEVARQPTVAAIASRLQSGSGVTFGDLDRLSAYIPQIKTLNITGTAMFEGRPQLVVFNASHTPDLEVAQAAHISGSFPGVFQKVSLSDQPYQAGVEWTEFQDGGVMINVPVPEMIDKNFDSGPLRRNDNLILEFEGEAGEVAPDRGTRGGALKGWVVGVPALQAREMLQLEGLEELREQTVVVPLKSERGDFSGMLGGTLNFTMPDEIKAHLQERLQERVGEHLEKRLQASERHTFASLDEALLALDDSMLTSVAQQNPEITDGAVAFRQKARDAFTELTVAIVSANGLAGRLKLDEAMRSALQRLDALADTPERLAWLAAELNHADNVDHQQLLDAMRGQTVQSPVLAAALAEAQRRKVAVIAENIRKEVIFPSLYRPGQPDSNVALLRRAEEQLRHATSPAEINQALNDIVDNYSARGFLRFGKPLSSTTVEMAKAWRNKEFT
B1: the binding result is “no binding (tested: 2 mg/mL)”.
